Source: PubChem BioAssay AID1159579 (Peter MacCallum Cancer Centre, 2015)

- Test: 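Follow-up screen seeking modulators of motility in lymphatic endothelial cells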 (follow-up of hits)
- Cell system: human dermal lymphatic endothelial cells
- Reagent: single siRNA against human genes, 25 nM
- Measured: 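High content images of wound closure area and cell nuclei counts, each the average of two wells, expressed against mock transfection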
- Reading the numbers: migration relative to mock: higher = more migration into the scratch; mean nuclei count: higher = more cells remaining
- Rule for the call: 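a ratio of at most 0.6 or at least 1.3 marks altered migration and an active call; a mean nuclei count under 3300 forces an inactive call regardless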
- Calls: active = migration changed (impaired or accelerated); inactive = no migration change, or too few cells
In all, the deposit lists about 2,000 reagents; shown is a random part of them. 549 of them (27%) were called active. 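Some migration ratios are negative; siRNAs with too few cells are inactive whatever their migration ratio.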 Unmarked entries are inactive. The numbers tell different reagents against one gene apart. Reagent sequences are not shown. Not stated in the record: the time to read-out.

migration relative to mock | migration and cell number class | mean nuclei count | Gene | reagent no.
-0.13 (active) | migration reduced | 3832 | TNK1 | 1
0.67 | no change in migration or cell number | 6136 | TNK1 | 2
0.66 | no change in migration or cell number | 5948 | TNK1 | 3
0.92 | no change in migration or cell number | 6092 | TNK1 | 4
0.67 | no change in migration or cell number | 5189 | NME3 | 1
0.63 | no change in migration or cell number | 5742 | NME3 | 2
0.4 (active) | migration reduced | 3848 | NME3 | 3
0.87 | no change in migration or cell number | 5974 | NME3 | 4
1.1 | no change in migration or cell number | 5239 | EFHC2 | 1
0.73 | no change in migration or cell number | 4976 | EFHC2 | 2
0.54 (active) | migration reduced | 4132 | EFHC2 | 3
0.95 | no change in migration or cell number | 5188 | EFHC2 | 4
0.9 | no change in migration or cell number | 6856 | MPP3 | 1
0.54 (active) | migration reduced | 4854 | MPP3 | 2
0.38 | too few cells; migration not scored | 2962 | MPP3 | 3
0.54 (active) | migration reduced | 4406 | MPP3 | 4
0.92 | no change in migration or cell number | 6736 | ERP29 | 1
0.79 | no change in migration or cell number | 5878 | ERP29 | 2
0.88 | no change in migration or cell number | 5574 | ERP29 | 3
0.7 | no change in migration or cell number | 5786 | ERP29 | 4
-0.2 (active) | migration reduced | 3748 | AKAP11 | 1
0.69 | no change in migration or cell number | 6294 | AKAP11 | 2
1.23 | no change in migration or cell number | 7666 | AKAP11 | 3
0.76 | no change in migration or cell number | 5507 | AKAP11 | 4
0.97 | no change in migration or cell number | 6512 | ATXN1 | 1
0.82 | no change in migration or cell number | 4497 | ATXN1 | 2
0.62 | no change in migration or cell number | 3608 | ATXN1 | 3
0.9 | no change in migration or cell number | 5004 | ATXN1 | 4
0.97 | no change in migration or cell number | 4866 | CEPT1 | 1
0.38 (active) | migration reduced | 4777 | CEPT1 | 2
0.98 | no change in migration or cell number | 5054 | CEPT1 | 3
-0.4 (active) | migration reduced | 3886 | CEPT1 | 4
0.68 | no change in migration or cell number | 5462 | IFNE | 1
0.86 | no change in migration or cell number | 6410 | IFNE | 2
1.02 | no change in migration or cell number | 4670 | IFNE | 3
0.82 | no change in migration or cell number | 5014 | IFNE | 4
0.39 (active) | migration reduced | 5734 | ASB14 | 1
0.96 | no change in migration or cell number | 6464 | ASB14 | 2
0.79 | no change in migration or cell number | 4606 | ASB14 | 3
0.74 | no change in migration or cell number | 5693 | ASB14 | 4
0.51 (active) | migration reduced | 4730 | FMC1 | 1
0.36 (active) | migration reduced | 4248 | FMC1 | 2
0.38 (active) | migration reduced | 4698 | FMC1 | 3
0.9 | no change in migration or cell number | 5884 | FMC1 | 4

Next part (9 carried over from the part before).
migration relative to mock | migration and cell number class | mean nuclei count | Gene | reagent no.
0.82 | no change in migration or cell number | 5014 | IFNE | 4
0.39 (active) | migration reduced | 5734 | ASB14 | 1
0.96 | no change in migration or cell number | 6464 | ASB14 | 2
0.79 | no change in migration or cell number | 4606 | ASB14 | 3
0.74 | no change in migration or cell number | 5693 | ASB14 | 4
0.51 (active) | migration reduced | 4730 | FMC1 | 1
0.36 (active) | migration reduced | 4248 | FMC1 | 2
0.38 (active) | migration reduced | 4698 | FMC1 | 3
0.9 | no change in migration or cell number | 5884 | FMC1 | 4
0.12 | too few cells; migration not scored | 2380 | TBC1D24 | 1
1.07 | no change in migration or cell number | 5795 | TBC1D24 | 2
0.38 (active) | migration reduced | 4104 | TBC1D24 | 3
1.08 | no change in migration or cell number | 5592 | TBC1D24 | 4
0.7 | no change in migration or cell number | 4714 | EPHA6 | 1
-0.07 | too few cells; migration not scored | 3023 | EPHA6 | 2
0.18 (active) | migration reduced | 4130 | EPHA6 | 3
0.92 | no change in migration or cell number | 5924 | EPHA6 | 4
0.84 | no change in migration or cell number | 5684 | GDF3 | 1
0.45 (active) | migration reduced | 6088 | GDF3 | 2
0.12 (active) | migration reduced | 4494 | GDF3 | 3
-0.5 (active) | migration reduced | 5164 | GDF3 | 4
0.62 | no change in migration or cell number | 4476 | ZNF703 | 1
1 | no change in migration or cell number | 4730 | ZNF703 | 2
1.01 | no change in migration or cell number | 5130 | ZNF703 | 3
1.05 | no change in migration or cell number | 6106 | ZNF703 | 4
1.1 | no change in migration or cell number | 5330 | SKAP2 | 1
1.02 | no change in migration or cell number | 5344 | SKAP2 | 2
0.1 (active) | migration reduced | 4435 | SKAP2 | 3
1.07 | no change in migration or cell number | 6255 | SKAP2 | 4
0.48 (active) | migration reduced | 6456 | ACP2 | 1
0.88 | no change in migration or cell number | 5432 | ACP2 | 2
-0.2 (active) | migration reduced | 5747 | ACP2 | 3
0.52 (active) | migration reduced | 6140 | ACP2 | 4
